From the supplement of paper PMC12823440, “Inhibitors supercharge kinase turnover through native proteolytic circuits” (Nature, 2025)
Where a name gives a salt, the structure may show the parent alone. Some of the results follow. The calls rarely recur for the same compound in another form.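 Kinases were expressed as nanoluciferase fusions in K562 cells and luminescence was read every 4 h between 2 and 18 h as percent of control, DMSO set to 100% and a positive control to 0%. A time point counts as decreased when the signal drops significantly (2 sigma). The hit call is the authors' own, does not follow from the count of time points alone, and its rule is not shown.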

Amino acid sequences for entries named in this document (tags omitted). A change or cut given only in a name is not applied to a line headed by its entry.
UniProt P28482, whole entry: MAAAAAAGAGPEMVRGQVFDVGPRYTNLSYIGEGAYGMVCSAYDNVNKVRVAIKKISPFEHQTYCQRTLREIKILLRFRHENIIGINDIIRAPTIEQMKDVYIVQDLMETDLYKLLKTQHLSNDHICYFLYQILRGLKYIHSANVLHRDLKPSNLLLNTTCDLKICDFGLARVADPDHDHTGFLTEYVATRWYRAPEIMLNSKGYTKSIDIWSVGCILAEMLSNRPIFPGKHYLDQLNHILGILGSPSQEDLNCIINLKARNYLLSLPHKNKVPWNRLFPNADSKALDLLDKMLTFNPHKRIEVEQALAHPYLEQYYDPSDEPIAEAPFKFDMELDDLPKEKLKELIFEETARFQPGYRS
UniProt P31152, whole entry: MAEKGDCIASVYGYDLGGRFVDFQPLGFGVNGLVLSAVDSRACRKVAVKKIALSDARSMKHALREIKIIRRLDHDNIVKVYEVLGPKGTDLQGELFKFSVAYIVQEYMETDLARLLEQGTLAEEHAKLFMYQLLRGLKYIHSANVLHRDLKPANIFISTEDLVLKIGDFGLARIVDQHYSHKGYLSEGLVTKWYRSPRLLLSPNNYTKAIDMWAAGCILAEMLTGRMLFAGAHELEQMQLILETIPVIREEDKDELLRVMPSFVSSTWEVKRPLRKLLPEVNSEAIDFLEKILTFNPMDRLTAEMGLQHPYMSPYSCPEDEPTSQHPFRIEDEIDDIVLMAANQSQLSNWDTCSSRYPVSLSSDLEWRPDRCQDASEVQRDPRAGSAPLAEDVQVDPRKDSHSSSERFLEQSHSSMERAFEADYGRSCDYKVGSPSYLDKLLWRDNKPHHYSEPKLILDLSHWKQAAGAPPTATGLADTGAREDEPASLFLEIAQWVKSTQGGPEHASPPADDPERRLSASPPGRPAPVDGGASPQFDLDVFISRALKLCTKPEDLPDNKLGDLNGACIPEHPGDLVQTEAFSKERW
UniProt P49137, whole entry, looked up: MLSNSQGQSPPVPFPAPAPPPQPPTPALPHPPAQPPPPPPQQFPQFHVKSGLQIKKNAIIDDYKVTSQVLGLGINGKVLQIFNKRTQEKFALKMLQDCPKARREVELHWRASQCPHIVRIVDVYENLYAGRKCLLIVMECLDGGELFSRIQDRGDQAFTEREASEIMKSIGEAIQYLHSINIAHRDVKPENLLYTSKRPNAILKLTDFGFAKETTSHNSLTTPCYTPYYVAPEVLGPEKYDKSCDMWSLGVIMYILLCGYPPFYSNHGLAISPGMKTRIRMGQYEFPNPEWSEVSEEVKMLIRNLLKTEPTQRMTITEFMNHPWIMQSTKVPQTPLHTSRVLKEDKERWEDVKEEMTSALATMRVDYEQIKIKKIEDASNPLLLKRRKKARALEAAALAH
UniProt Q9BUB5: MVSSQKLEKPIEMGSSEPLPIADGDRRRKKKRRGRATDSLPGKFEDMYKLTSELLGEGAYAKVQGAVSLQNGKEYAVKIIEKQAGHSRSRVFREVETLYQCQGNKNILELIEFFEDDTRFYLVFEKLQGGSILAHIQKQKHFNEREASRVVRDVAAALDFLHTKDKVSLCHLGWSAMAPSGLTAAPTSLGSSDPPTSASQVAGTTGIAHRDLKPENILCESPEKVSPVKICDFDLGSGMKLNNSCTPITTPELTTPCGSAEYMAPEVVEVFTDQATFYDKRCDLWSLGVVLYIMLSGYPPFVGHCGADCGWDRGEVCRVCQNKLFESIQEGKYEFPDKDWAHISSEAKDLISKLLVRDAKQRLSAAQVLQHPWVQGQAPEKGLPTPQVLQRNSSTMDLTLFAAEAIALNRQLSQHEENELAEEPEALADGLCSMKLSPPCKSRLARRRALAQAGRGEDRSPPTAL
UniProt Q16620, whole entry, looked up: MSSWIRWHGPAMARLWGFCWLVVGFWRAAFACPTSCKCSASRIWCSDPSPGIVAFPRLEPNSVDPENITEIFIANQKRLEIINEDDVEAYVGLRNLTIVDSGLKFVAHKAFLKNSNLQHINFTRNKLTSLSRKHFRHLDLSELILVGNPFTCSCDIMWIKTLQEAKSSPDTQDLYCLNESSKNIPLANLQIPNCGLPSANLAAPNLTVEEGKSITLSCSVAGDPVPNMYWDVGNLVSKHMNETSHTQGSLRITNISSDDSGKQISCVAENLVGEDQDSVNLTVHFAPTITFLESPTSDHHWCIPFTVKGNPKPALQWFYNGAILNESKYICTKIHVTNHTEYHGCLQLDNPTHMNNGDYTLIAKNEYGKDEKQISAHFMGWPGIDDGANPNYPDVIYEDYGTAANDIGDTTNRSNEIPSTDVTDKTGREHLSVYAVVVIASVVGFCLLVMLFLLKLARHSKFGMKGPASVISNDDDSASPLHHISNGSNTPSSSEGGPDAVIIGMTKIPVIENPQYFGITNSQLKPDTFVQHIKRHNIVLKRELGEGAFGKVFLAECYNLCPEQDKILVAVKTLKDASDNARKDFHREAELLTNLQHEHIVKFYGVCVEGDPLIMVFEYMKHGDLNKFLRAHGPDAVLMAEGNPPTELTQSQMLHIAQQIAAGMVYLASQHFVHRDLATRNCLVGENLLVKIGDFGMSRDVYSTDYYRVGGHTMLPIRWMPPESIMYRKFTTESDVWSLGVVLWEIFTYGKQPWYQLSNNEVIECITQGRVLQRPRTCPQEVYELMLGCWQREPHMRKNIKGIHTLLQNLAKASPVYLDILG
UniProt Q16288, whole entry, looked up: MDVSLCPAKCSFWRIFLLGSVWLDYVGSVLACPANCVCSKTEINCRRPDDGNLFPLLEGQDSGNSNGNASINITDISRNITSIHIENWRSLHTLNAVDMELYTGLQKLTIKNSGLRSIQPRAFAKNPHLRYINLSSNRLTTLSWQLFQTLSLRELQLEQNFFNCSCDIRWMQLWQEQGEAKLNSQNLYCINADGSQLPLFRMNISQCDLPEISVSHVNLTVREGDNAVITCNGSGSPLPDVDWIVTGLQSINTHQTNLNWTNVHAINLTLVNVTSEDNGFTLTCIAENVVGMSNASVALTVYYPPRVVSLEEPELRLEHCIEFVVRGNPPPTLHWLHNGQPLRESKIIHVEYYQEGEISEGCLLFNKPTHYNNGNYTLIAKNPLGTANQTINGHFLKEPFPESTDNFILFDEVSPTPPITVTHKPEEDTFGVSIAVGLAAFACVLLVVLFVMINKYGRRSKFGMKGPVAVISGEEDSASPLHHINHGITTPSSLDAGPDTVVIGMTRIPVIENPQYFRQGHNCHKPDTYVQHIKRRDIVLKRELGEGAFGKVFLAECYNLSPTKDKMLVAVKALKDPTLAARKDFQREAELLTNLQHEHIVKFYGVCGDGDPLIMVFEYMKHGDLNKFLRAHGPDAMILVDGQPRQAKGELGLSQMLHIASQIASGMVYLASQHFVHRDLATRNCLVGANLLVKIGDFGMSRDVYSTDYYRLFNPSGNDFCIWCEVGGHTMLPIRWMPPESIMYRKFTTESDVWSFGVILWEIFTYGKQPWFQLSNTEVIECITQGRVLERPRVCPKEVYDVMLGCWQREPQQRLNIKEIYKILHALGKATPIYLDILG
UniProt O96013: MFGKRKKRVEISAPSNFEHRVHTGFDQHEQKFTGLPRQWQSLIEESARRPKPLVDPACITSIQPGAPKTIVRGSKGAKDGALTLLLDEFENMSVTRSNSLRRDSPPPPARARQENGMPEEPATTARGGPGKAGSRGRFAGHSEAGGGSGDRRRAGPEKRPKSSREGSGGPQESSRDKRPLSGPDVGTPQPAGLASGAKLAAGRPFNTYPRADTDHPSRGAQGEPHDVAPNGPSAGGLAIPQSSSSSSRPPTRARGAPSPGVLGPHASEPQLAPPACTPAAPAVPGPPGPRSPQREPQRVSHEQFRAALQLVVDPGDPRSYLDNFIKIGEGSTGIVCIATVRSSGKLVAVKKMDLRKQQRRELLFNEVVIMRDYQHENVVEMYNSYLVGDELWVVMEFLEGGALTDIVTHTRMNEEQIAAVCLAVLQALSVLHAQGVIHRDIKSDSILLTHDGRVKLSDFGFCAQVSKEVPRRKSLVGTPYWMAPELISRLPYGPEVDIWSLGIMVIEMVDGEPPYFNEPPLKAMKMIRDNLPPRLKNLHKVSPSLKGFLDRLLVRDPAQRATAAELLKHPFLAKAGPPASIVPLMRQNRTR
UniProt Q96KB5: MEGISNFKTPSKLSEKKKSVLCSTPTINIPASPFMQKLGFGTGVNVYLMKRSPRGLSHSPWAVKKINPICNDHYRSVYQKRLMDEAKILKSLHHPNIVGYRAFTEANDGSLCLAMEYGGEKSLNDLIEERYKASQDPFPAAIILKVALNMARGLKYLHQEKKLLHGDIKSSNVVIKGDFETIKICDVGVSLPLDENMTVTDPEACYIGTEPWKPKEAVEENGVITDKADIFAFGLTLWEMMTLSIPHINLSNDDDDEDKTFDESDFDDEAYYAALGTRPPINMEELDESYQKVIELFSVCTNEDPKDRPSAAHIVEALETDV
UniProt P09619, whole entry: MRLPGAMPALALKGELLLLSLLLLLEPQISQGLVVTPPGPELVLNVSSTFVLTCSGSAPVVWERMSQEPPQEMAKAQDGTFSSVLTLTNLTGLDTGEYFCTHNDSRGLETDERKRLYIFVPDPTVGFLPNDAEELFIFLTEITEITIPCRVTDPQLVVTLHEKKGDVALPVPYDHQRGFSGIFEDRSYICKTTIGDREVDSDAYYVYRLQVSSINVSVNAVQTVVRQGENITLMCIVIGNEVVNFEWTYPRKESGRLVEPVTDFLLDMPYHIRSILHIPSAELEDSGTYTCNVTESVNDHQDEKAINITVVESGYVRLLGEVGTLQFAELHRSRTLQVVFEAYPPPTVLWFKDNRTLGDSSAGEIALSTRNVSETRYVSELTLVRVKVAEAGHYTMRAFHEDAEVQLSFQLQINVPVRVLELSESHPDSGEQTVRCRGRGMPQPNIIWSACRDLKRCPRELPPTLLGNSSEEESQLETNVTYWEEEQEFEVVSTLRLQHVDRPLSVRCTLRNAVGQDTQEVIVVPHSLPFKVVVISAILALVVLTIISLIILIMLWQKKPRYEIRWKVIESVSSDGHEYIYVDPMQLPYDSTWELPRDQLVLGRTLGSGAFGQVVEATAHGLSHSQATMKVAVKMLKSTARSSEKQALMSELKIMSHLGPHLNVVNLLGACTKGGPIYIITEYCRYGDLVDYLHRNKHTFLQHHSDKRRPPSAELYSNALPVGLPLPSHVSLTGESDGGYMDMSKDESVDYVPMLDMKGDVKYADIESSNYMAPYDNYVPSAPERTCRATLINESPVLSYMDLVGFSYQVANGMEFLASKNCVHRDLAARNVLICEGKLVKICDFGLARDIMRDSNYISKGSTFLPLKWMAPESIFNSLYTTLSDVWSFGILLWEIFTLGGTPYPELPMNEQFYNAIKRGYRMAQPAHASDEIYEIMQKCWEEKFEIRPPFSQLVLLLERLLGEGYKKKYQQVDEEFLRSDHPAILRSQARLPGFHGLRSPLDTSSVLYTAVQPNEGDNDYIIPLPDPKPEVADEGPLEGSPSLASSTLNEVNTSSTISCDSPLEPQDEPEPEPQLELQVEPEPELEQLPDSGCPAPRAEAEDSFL
UniProt Q15118, whole entry, looked up: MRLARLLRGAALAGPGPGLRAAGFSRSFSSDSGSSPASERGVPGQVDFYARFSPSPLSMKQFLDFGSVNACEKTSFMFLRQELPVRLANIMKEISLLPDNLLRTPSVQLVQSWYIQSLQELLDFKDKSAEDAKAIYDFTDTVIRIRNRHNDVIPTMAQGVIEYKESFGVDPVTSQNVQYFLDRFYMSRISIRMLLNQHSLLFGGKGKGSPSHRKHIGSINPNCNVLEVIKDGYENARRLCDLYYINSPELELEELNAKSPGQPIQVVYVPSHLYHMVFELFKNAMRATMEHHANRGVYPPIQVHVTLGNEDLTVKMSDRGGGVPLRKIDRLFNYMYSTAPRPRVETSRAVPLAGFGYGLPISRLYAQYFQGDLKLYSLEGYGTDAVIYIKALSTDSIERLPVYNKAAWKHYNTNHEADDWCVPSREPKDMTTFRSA

Legend:
Test in all cases: kinase-Nluc reporter destabilization hit call (1 = scored as downregulated) (binary); higher = compound decreases kinase abundance
Details in all cases: K562, 2-18 h
[1] = biological target: MAPK1 (UniProt P28482)
[2] = biological target: MAPK4 (UniProt P31152)
[3] = biological target: MAPKAPK2 (UniProt P49137)
[4] = biological target: MKNK1 (UniProt Q9BUB5)
[5] = biological target: NTRK2 (UniProt Q16620)
[6] = biological target: NTRK3 (UniProt Q16288)
[7] = biological target: PAK4 (UniProt O96013)
[8] = biological target: PBK (UniProt Q96KB5)
[9] = biological target: PDGFRB (UniProt P09619)
[10] = biological target: PDK1 (UniProt Q15118)

Measured: kinase-Nluc reporter destabilization hit call

N#CCC1(n2cc(-c3ncnc4[nH]ccc34)cn2)CN(C2CCN(C(=O)c3ccnc(C(F)(F)F)c3F)CC2)C1 [Itacitinib]
inactive: [1]; 10 µM 0 | [2]; 10 µM 0 | [3]; 10 µM 0 | [4]; 10 µM 0 | [5]; 10 µM 0 | [6]; 10 µM 0 | [7]; 10 µM 0 | [8]; 10 µM 0 | [9]; 10 µM 0 | [10]; 10 µM 0

CN(C)C(=O)c1cc2cnc(Nc3ccc(N4CCNCC4)cn3)nc2n1C1CCCC1 [Ribociclib succinate]
inactive: [1]; 10 µM 0 | [2]; 10 µM 0 | [3]; 10 µM 0 | [4]; 10 µM 0 | [5]; 10 µM 0 | [6]; 10 µM 0 | [7]; 10 µM 0 | [8]; 10 µM 0 | [9]; 10 µM 0 | [10]; 10 µM 0

CN(C)C/C=C/C(=O)Nc1cc2c(Nc3ccc(F)c(Cl)c3)ncnc2cc1O[C@H]1CCOC1 [Afatinib (dimaleate)]
inactive: [1]; 2.5 µM 0 | [2]; 2.5 µM 0 | [3]; 2.5 µM 0 | [4]; 2.5 µM 0 | [5]; 2.5 µM 0 | [6]; 2.5 µM 0 | [7]; 2.5 µM 0 | [8]; 2.5 µM 0 | [9]; 2.5 µM 0 | [10]; 2.5 µM 0

COc1cc2c(cc1OC)-c1c(C)c3ccc(OC)c(OC)c3c[n+]1CC2 [Dehydrocorydaline (chloride)]
inactive: [1]; 10 µM 0 | [2]; 10 µM 0 | [3]; 10 µM 0 | [4]; 10 µM 0 | [5]; 10 µM 0 | [6]; 10 µM 0 | [7]; 10 µM 0 | [8]; 10 µM 0 | [9]; 10 µM 0 | [10]; 10 µM 0

Cn1ncc(Cl)c1-c1cc(C(=O)N[C@H](CN)Cc2cccc(F)c2)sc1Cl [Afuresertib]
inactive: [1]; 10 µM 0 | [2]; 10 µM 0 | [3]; 10 µM 0 | [4]; 10 µM 0 | [6]; 10 µM 0 | [7]; 10 µM 0 | [8]; 10 µM 0 | [9]; 10 µM 0 | [10]; 10 µM 0

CC(C)NC[C@@H](C(=O)N1CCN(c2ncnc3c2[C@H](C)C[C@H]3O)CC1)c1ccc(Cl)cc1 [Ipatasertib]
inactive: [1]; 10 µM 0 | [2]; 10 µM 0 | [3]; 10 µM 0 | [4]; 10 µM 0 | [6]; 10 µM 0 | [7]; 10 µM 0 | [8]; 10 µM 0 | [9]; 10 µM 0 | [10]; 10 µM 0

CNc1ncc2cc(-c3ccc(-c4cccc(C)n4)cc3Cl)c(=O)n(C[C@H]3OC[C@H](N)CO3)c2n1
inactive: [1]; 10 µM 0 | [2]; 10 µM 0 | [3]; 10 µM 0 | [4]; 10 µM 0 | [5]; 10 µM 0 | [6]; 10 µM 0 | [7]; 10 µM 0 | [8]; 10 µM 0 | [9]; 10 µM 0 | [10]; 10 µM 0

N#CCNC(=O)c1ccc(-c2ccnc(Nc3ccc(N4CCOCC4)cc3)n2)cc1 [Momelotinib sulfate]
inactive: [1]; 10 µM 0 | [2]; 10 µM 0 | [3]; 10 µM 0 | [4]; 10 µM 0 | [5]; 10 µM 0 | [6]; 10 µM 0 | [7]; 10 µM 0 | [8]; 10 µM 0 | [9]; 10 µM 0 | [10]; 10 µM 0

CC(C)(C)n1nc(-c2cccc3ccccc23)c2c(N)ncnc21 [1-Naphthyl PP1 (hydrochloride)]
inactive: [1]; 10 µM 0 | [2]; 10 µM 0 | [3]; 10 µM 0 | [4]; 10 µM 0 | [5]; 10 µM 0 | [6]; 10 µM 0 | [7]; 10 µM 0 | [8]; 10 µM 0 | [9]; 10 µM 0 | [10]; 10 µM 0

C=CC(=O)Nc1cc(Nc2nccc(-c3cn(C4CC4)c4ccccc34)n2)c(OC)cc1N(C)CCN(C)C [Almonertinib (hydrochloride)]
inactive: [1]; 2.5 µM 0 | [2]; 2.5 µM 0 | [3]; 2.5 µM 0 | [4]; 2.5 µM 0 | [5]; 2.5 µM 0 | [6]; 2.5 µM 0 | [7]; 2.5 µM 0 | [8]; 2.5 µM 0 | [9]; 2.5 µM 0 | [10]; 2.5 µM 0

O=C(Nc1cnn2ccc(N3CCC[C@@H]3c3cc(F)ccc3F)nc12)N1CC[C@H](O)C1 [Larotrectinib]
inactive: [1]; 10 µM 0 | [2]; 10 µM 0 | [3]; 10 µM 0 | [4]; 10 µM 0 | [5]; 10 µM 0 | [6]; 10 µM 0 | [7]; 10 µM 0 | [8]; 10 µM 0 | [9]; 10 µM 0 | [10]; 10 µM 0

COCCOc1cc(F)c2c(Nc3ccc(NC(=O)Cn4cc(C(C)C)nn4)cc3)ncnc2c1 [AZD3229 Tosylate]
inactive: [1]; 10 µM 0 | [2]; 10 µM 0 | [3]; 10 µM 0 | [4]; 10 µM 0 | [5]; 10 µM 0 | [6]; 10 µM 0 | [7]; 10 µM 0 | [8]; 10 µM 0 | [9]; 10 µM 0 | [10]; 10 µM 0

COC(=O)[C@H](CC(C)C)NC(=O)c1ccc(NC[C@@H](N)CS)cc1-c1cccc2ccccc12
inactive: [1]; 10 µM 0 | [2]; 10 µM 0 | [3]; 10 µM 0 | [4]; 10 µM 0 | [5]; 10 µM 0 | [6]; 10 µM 0 | [7]; 10 µM 0 | [8]; 10 µM 0 | [9]; 10 µM 0 | [10]; 10 µM 0

C[C@H](Nc1cc(-c2cnn(C)c2)cc(Nc2cnccn2)n1)c1ccc(F)cc1 [Ilginatinib]
inactive: [1]; 2.5 µM 0 | [2]; 2.5 µM 0 | [3]; 2.5 µM 0 | [4]; 2.5 µM 0 | [5]; 2.5 µM 0 | [6]; 2.5 µM 0 | [7]; 2.5 µM 0 | [8]; 2.5 µM 0 | [9]; 2.5 µM 0 | [10]; 2.5 µM 0

CCCCCCCCc1ccc(CCC(N)(CO)CO)cc1 [Fingolimod (hydrochloride)]
inactive: [1]; 2.5 µM 0 | [2]; 2.5 µM 0 | [3]; 2.5 µM 0 | [4]; 2.5 µM 0 | [6]; 2.5 µM 0 | [7]; 2.5 µM 0 | [8]; 2.5 µM 0 | [9]; 2.5 µM 0 | [10]; 2.5 µM 0

Quoted from the listing (two entries):
N#CCNC(=O)c1ccc(-c2ccnc(Nc3ccc(N4CCOCC4)cc3)n2)cc1 [Momelotinib sulfate]
inactive: [1]; 10 µM 0 | [2]; 10 µM 0 | [3]; 10 µM 0 | [4]; 10 µM 0 | [5]; 10 µM 0 | [6]; 10 µM 0 | [7]; 10 µM 0 | [8]; 10 µM 0 | [9]; 10 µM 0 | [10]; 10 µM 0

CC(C)(C)n1nc(-c2cccc3ccccc23)c2c(N)ncnc21 [1-Naphthyl PP1 (hydrochloride)]
inactive: [1]; 10 µM 0 | [2]; 10 µM 0 | [3]; 10 µM 0 | [4]; 10 µM 0 | [5]; 10 µM 0 | [6]; 10 µM 0 | [7]; 10 µM 0 | [8]; 10 µM 0 | [9]; 10 µM 0 | [10]; 10 µM 0

The list goes on.

C/C=C1\C(=O)C[C@H]2[C@@H]3CCC4=CC(=O)CC[C@]4(C)[C@H]3CC[C@]12C [Guggulsterone]
inactive: [1]; 10 µM 0 | [2]; 10 µM 0 | [3]; 10 µM 0 | [4]; 10 µM 0 | [5]; 10 µM 0 | [6]; 10 µM 0 | [7]; 10 µM 0 | [8]; 10 µM 0 | [9]; 10 µM 0 | [10]; 10 µM 0

Cc1cccc(/C=N/Nc2cc(N3CCOCC3)nc(OCCc3ccccn3)n2)c1 [Apilimod]
inactive: [1]; 2.5 µM 0 | [2]; 2.5 µM 0 | [3]; 2.5 µM 0 | [4]; 2.5 µM 0 | [5]; 2.5 µM 0 | [6]; 2.5 µM 0 | [7]; 2.5 µM 0 | [8]; 2.5 µM 0 | [9]; 2.5 µM 0 | [10]; 2.5 µM 0

COc1ncc(F)cc1CNc1ccc(Cc2c[nH]c3ncc(C)cc23)c(F)n1 [PLX5622 (hemifumarate)]
inactive: [1]; 10 µM 0 | [2]; 10 µM 0 | [3]; 10 µM 0 | [4]; 10 µM 0 | [5]; 10 µM 0 | [6]; 10 µM 0 | [7]; 10 µM 0 | [8]; 10 µM 0 | [9]; 10 µM 0 | [10]; 10 µM 0

N#CC[C@H](C1CCCC1)n1cc(-c2ncnc3[nH]ccc23)cn1 [Ruxolitinib]
inactive: [1]; 10 µM 0 | [2]; 10 µM 0 | [3]; 10 µM 0 | [4]; 10 µM 0 | [5]; 10 µM 0 | [7]; 10 µM 0 | [8]; 10 µM 0 | [9]; 10 µM 0 | [10]; 10 µM 0

Cc1cccc(-c2[nH]c(CNc3ccccc3F)nc2-c2ccc3ncnn3c2)n1 [Vactosertib (Hydrochloride)]
inactive: [1]; 2.5 µM 0 | [2]; 2.5 µM 0 | [3]; 2.5 µM 0 | [4]; 2.5 µM 0 | [5]; 2.5 µM 0 | [7]; 2.5 µM 0 | [8]; 2.5 µM 0 | [9]; 2.5 µM 0 | [10]; 2.5 µM 0

C=CC(=O)Nc1cc(Nc2ncc(C(=O)OC(C)C)c(-c3cn(C)c4ccccc34)n2)c(OC)cc1N(C)CCN(C)C [Mobocertinib]
inactive: [1]; 10 µM 0 | [2]; 10 µM 0 | [3]; 10 µM 0 | [4]; 10 µM 0 | [5]; 10 µM 0 | [6]; 10 µM 0 | [7]; 10 µM 0 | [8]; 10 µM 0 | [9]; 10 µM 0 | [10]; 10 µM 0

Cn1cc(-c2cnc3ccc4ccc(CS(=O)(=O)NCc5ccccn5)cc4c(=O)c3c2)cn1
inactive: [1]; 10 µM 0 | [2]; 10 µM 0 | [3]; 10 µM 0 | [4]; 10 µM 0 | [5]; 10 µM 0 | [6]; 10 µM 0 | [7]; 10 µM 0 | [8]; 10 µM 0 | [9]; 10 µM 0 | [10]; 10 µM 0

CC(=O)Nc1cccc(-n2c(=O)n(C3CC3)c(=O)c3c(Nc4ccc(I)cc4F)n(C)c(=O)c(C)c32)c1 [Trametinib (DMSO solvate)]
inactive: [1]; 10 µM 0 | [2]; 10 µM 0 | [3]; 10 µM 0 | [4]; 10 µM 0 | [5]; 10 µM 0 | [6]; 10 µM 0 | [7]; 10 µM 0 | [8]; 10 µM 0 | [9]; 10 µM 0 | [10]; 10 µM 0

CCCC(=O)Nc1ncnc2c1ncn2[C@@H]1O[C@@H]2COP(=O)(O)O[C@H]2[C@H]1OC(=O)CCC [Bucladesine (sodium)]
inactive: [1]; 10 µM 0 | [2]; 10 µM 0 | [3]; 10 µM 0 | [4]; 10 µM 0 | [5]; 10 µM 0 | [6]; 10 µM 0 | [7]; 10 µM 0 | [8]; 10 µM 0 | [9]; 10 µM 0 | [10]; 10 µM 0

Cc1cccc(-c2[nH]c(CNc3ccccc3F)nc2-c2ccc3ncnn3c2)n1 [Vactosertib]
inactive: [1]; 2.5 µM 0 | [2]; 2.5 µM 0 | [3]; 2.5 µM 0 | [4]; 2.5 µM 0 | [5]; 2.5 µM 0 | [7]; 2.5 µM 0 | [8]; 2.5 µM 0 | [9]; 2.5 µM 0 | [10]; 2.5 µM 0
